Laboratory results from the supplement of paper PMC5949888.
Most values lie at the floor of the assay. Slopes are relative: functional sequences can read slightly below zero.

tested on: Saccharomyces cerevisiae PS128 hsf1 delta, HSF1(1-493) fusion; assay: growth estimate (transactivation domain function in HSF1 fusion, heat-shock survival) (a.u. (slope of normalised read count over time)); higher = stronger growth at 37°C, i.e. more transactivation activity; conditions: library: random library
Procedure: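 Random 60-nt DNA library encoding peptides of up to 20 aa, fused to the C-terminus of yeast HSF1 residues 1-493 (C-terminal TAD deleted) and expressed from the native HSF1 promoter on a CEN plasmid in hsf1-deleted S. cerevisiae PS128. Cells were selected at 37°C on -trp 5-FOA plates for 0, 2, 4, 6 and 8 days and amplicons were sequenced. Growth estimate is the slope of a robust linear fit of total-sum-normalised read counts (normalised to the first time point) over time, using at least 2 replicates. Sequences are classed functional (TAD activity) above a threshold of -0.13, set from stop-codon control sequences.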

| Substance | growth estimate |
| --- | --- |
| YPMETGKSIDRP | < -0.25 |
| HGRVI | < -0.25 |
| RCCTRPG | < -0.25 |
| EFSQRLVKLRVIGY | < -0.25 |
| ANLAPRSQRTVIKDNEPFAA | < -0.25 |
| GDWATFSLTLGVI | < -0.25 |
| IPHFEGVGLT | < -0.25 |
| FGYLLELVVRKLTFEANHRG | < -0.25 |
| RILSRFP | < -0.25 |
| RLVQ | < -0.25 |
| VLKTRLLLRDDDGIWCQSGH | < -0.25 |
| FTGTNTTLHFLDLVLRNANA | < -0.25 |
| SKEVAAQLIGTSRL | < -0.25 |
| KTGPISRT | < -0.25 |
| WVGGKHVSPKYLSSGSSAMF | < -0.25 |
| THIRRTAESAVPFPPSRPLF | < -0.25 |
| CPLSPGGSLGTYARRLVTVG | < -0.25 |
| RVPAIHPPCIELLSQSSSVR | < -0.25 |
| GLQGRYPMLCPILWTRSFVT | < -0.25 |
| GIRIQFRKGWWDLFIPCSIS | < -0.25 |
| LAGRGAPDAVFVEIHDNKKG | < -0.25 |
| VEDWRTCKNRRFRK | < -0.25 |
| TRVTYAALLTQEARAALTLA | < -0.25 |
| STVGKF | < -0.25 |

| Substance | growth estimate |
| --- | --- |
| HKGPPQEGTKD | < -0.25 |
| RDPKSTWVVLTQGLRVLRQW | < -0.25 |
| VGRVSGRLDDGDMSLIPPLV | < -0.25 |
| SSPGGANESRNTF | < -0.25 |
| AGGLGRGSLIFEHNRINPPL | < -0.25 |
| SCTACTETLACETILFENAG | -0.188 |
| LRWCVWVGCIWNETSIDHAS | -0.243 |
| YVSKIGCFTMR | < -0.25 |
| VREFSHYICFKRPPRLWLSH | < -0.25 |
| KAFESASRRGVFARNTLCGI | < -0.25 |
| NRTIHIRD | < -0.25 |
| SWLRKMYLYRLGFRWKEPLA | < -0.25 |
| DAAHDPRPGASGVNVRGLHS | < -0.25 |
| SLGERLDNTGTDSSGVSNGP | < -0.25 |
| QTPSKIDRSYEGVIYIASFP | < -0.25 |
| KDLSVSCE | < -0.25 |
| PRTFRAQIGFRDHVLACVDG | < -0.25 |
| RYI | < -0.25 |
| KELTRDKSPSWGSVWIISCS | < -0.25 |
| CVGERFAYGPYQQDNAWPDE | < -0.25 |
| RLRLHP | < -0.25 |
| LRTYQNEYRRKDNNGDRCDA | < -0.25 |
| PDNTAGNSYAEGAAAKLALE | < -0.25 |
| IRGDYSPGGECQI | < -0.25 |

At a glance, some entries already given:

| Substance | growth estimate |
| --- | --- |
| DAAHDPRPGASGVNVRGLHS | < -0.25 |
| SLGERLDNTGTDSSGVSNGP | < -0.25 |
| QTPSKIDRSYEGVIYIASFP | < -0.25 |
| KDLSVSCE | < -0.25 |

(listing goes on)

| Substance | growth estimate |
| --- | --- |
| RHQSYV | < -0.25 |
| GTSRNGPSKKTVRRWLPPLP | < -0.25 |
| STRCAARVDYTVIHLLCGLS | < -0.25 |
| KCGRSRLCLVLSAAFRTLCV | < -0.25 |
| SVLKVVCS | < -0.25 |
| ATNQSPGGKLRSNSKPRNLM | < -0.25 |
| GPQYMRTLFKSDHRK | < -0.25 |
| LPLSPANPARDHLTHLVTRT | < -0.25 |
| SRVRCMDGPHPSRLDACRIA | < -0.25 |
| RRGRITAHEES | < -0.25 |
| SFSQRLWVLRIRLRHDHPDS | < -0.25 |
| RVWSEQVIF | < -0.25 |
| KLTAPRRRMTSTYDGYC | < -0.25 |
| KPEAGARRIITGFFCTTSGV | < -0.25 |
| LLLPEVDISGWVIYPSENGH | -0.247 |
| PIRITYETCTKSRWLPA | < -0.25 |
| KWTAFVRPRGRRETRSVNVS | < -0.25 |
| GNGVPRGGSDAKKRWGLMST | < -0.25 |
| FSEVPWGIPIKNSLG | < -0.25 |
| TKGRGFHSDTPGGRSGYRGT | < -0.25 |
| PSNL | < -0.25 |
| RIAAFSWRFFLPLRFITTCH | < -0.25 |
| QGPDL | -0.202 |
| SPRLGGCYTVVEISSKVACV | < -0.25 |

| Substance | growth estimate |
| --- | --- |
| QGSGGVNVLREDLIPRPGPE | < -0.25 |
| PGRMSWSMLRGGWS | < -0.25 |
| NFHV | < -0.25 |
| GAGLLIREICLAISHD | < -0.25 |
| EEVCLLV | < -0.25 |
| AQLAEIFASALFVRRVLAYM | < -0.25 |
| YRSPPMRAWGSFAPLRTRIP | < -0.253 |
| NHVIYDGFRLDSSKRKMCLA | < -0.25 |
| TIKNRRRRVYCVTGPELRLG | < -0.25 |
| KYATA | < -0.25 |
| PGTSNG | 0.135 |
| GTKFHVPWGNS | -0.0569 |
| VCQGVVVAQKQDRFATLSKP | < -0.25 |
| PDY | < -0.25 |
| CRLRRTS | < -0.25 |
| WTGREMSSWCVVYWPNRQVS | < -0.25 |
| PRKGGLVCRRRSAPPGTSNS | < -0.25 |
| IKNSVIARREQVGL | < -0.25 |
| NSKGQSQACRFCGAHNTT | -0.243 |
| HGANHST | < -0.25 |
| RVRGISCDPTTSSRLFRPLA | < -0.25 |
| IGGSSGGD | < -0.25 |
| TPSPCRSTDRRGVVLTH | < -0.25 |
| LHFRPLPRITGSVGFAPMVF | < -0.25 |

| Substance | growth estimate |
| --- | --- |
| RSGPRAHD | < -0.25 |
| VLYVIEQGSS | < -0.25 |
| QTHNEG | < -0.25 |
| IRQQVTSVLYHCLGLGAIWG | < -0.25 |
| LYQR | < -0.25 |
| LPSIRHRQGIGVVLFSELPA | < -0.25 |
| GGIGQGCGLLSVPLTVILID | < -0.25 |
| RKQNAKSEIRTGQL | < -0.25 |
| RRSRTGCGYSGTRGLAPSSE | < -0.25 |
| AVVLSRLGFSRRQLASSSDQ | < -0.25 |
| MYR | < -0.25 |
| RFVVLPVKDVNLPYAKPRRR | < -0.25 |
| NHPFRVLQLCSSTLLPVGRC | < -0.25 |
| RQAPPVEVTPLVLELAFRVG | < -0.25 |
| RLGTNAGTWLVVLYRVTSRQ | < -0.25 |
| SCFGRAPPGVYDSS | < -0.25 |
| IVCL | < -0.25 |
| EEWEQGKDLLHVTRNVSMPQ | < -0.25 |
| LIHGRLLRRNLSLVLTVRKD | -0.229 |
| SHRGTVHRGPTGCLNVKRPV | < -0.25 |
| RGRSIEVR | < -0.25 |
| DVRLRRAFSAKIIGMYYYAG | < -0.25 |
| SHRGEARNPGFTTGWLM | < -0.25 |
| LRF | < -0.25 |

| Substance | growth estimate |
| --- | --- |
| SLSECRRLVPFIHRVHYWTY | < -0.25 |
| LCSQESAPSHQINIANST | < -0.25 |
| GCLWGRRNNGRPDRVWWSH | < -0.25 |
| GFTGRAHPQVWS | < -0.25 |
| RRLCISSTIVFSVKKEGA | < -0.25 |
| CAFTELLNSKREGI | < -0.25 |
| YNDNQLSR | < -0.25 |
| LRKGMWVGQTKVSTAGDRPI | < -0.25 |
| GLGAAGPQFTRNCRKYPFRP | < -0.25 |
| KLPTSAVPL | < -0.25 |
| LPVSGCVVMREAFWTIGSAL | < -0.25 |
| SCGSKHA | < -0.25 |
| HPEFGWG | < -0.25 |
| SCAVSRT | < -0.25 |
| FRSWIYRQRLKSEYCLSLIC | < -0.25 |
| HNGMLMCYMERECLASRHNC | < -0.25 |
| RCKRLGVSYRT | < -0.25 |
| SGWSKRPRIQSASATPPLSA | < -0.25 |
| DPK | < -0.25 |
| SDQACKALSLSRPRRPQRRP | < -0.25 |
| LCNTAGILNYPSASRCGLNG | < -0.25 |
| KALGFSEPRQVNPDRIDIEA | < -0.25 |
| RLSGLGRLVSSLMSC | < -0.25 |
| SHQEY | < -0.25 |

Shown with each value named: entries from further up
GCLWGRRNNGRPDRVWWSH
  growth estimate: < -0.25
YNDNQLSR
  growth estimate: < -0.25
LRKGMWVGQTKVSTAGDRPI
  growth estimate: < -0.25
HPEFGWG
  growth estimate: < -0.25

Additional results

| Substance | growth estimate |
| --- | --- |
| VIIQAMITEMYPT | < -0.25 |
| RLTNSSVSSESSCR | < -0.25 |
| NANGMNGVSRS | < -0.25 |
| VGLKSGSHITVADLVDRVFA | < -0.25 |
| LPVN | < -0.25 |
| SNHFAKNIDYLDDMRHRTL | < -0.25 |
| DPRKSV | < -0.25 |
| SHGLPSPGLHVMAEPTWNQA | < -0.25 |
| TGNFLP | < -0.25 |
| VLLLNSSRIGQFFVF | < -0.25 |
| GDVL | < -0.25 |
| GILEDARACGSLPPGVVLVR | < -0.25 |
| RSQKRTVCRTRCRRQRPEVA | < -0.25 |
| VCGSIFRSVRSQGYTHRRND | < -0.25 |
| PRRTSGSHDPHGFKAGFPRV | < -0.25 |
| RILFGRRNRCWTLA | < -0.25 |
| VMKIQRNSSIATFSQVHGGA | < -0.25 |
| ERLSKQAGLGRMTASIRHLS | < -0.25 |
| NKNRTSLKCVDPLFQLRLSR | < -0.25 |
| GCLPRVIYEVLTVLCLAHTC | < -0.25 |
| EHGPSLSKRST | -0.243 |
| RALFTNV | < -0.25 |
| LGNRKV | < -0.25 |
| NGLCASREL | < -0.25 |

| Substance | growth estimate |
| --- | --- |
| CESALNMRSLSPSRAMGEGL | < -0.25 |
| AFVGWAGVWTRDGMSATLAN | < -0.25 |
| RFVRGNRLRLG | < -0.25 |
| ALHGLLTGSNCRSRTEQ | < -0.25 |
| RTRDGVS | < -0.25 |
| CWGTGRRDLRI | < -0.25 |
| QSDRNHAASVRRDGPEVTDS | < -0.25 |
| GGMREGGDLAKRYGRCISTR | -0.243 |
| WLAVESRSRVQLDKVYELWG | < -0.25 |
| ATPRCSIPSVTYYLLCA | < -0.25 |
| HGQRVGPGHTIRRPRYTMRQ | < -0.25 |
| RAACLQPHISMSGISQYQRS | < -0.25 |
| ANRNRILEGGQHRAHASLGS | < -0.25 |
| DGLLTTSSRVGQVKDLPVSN | < -0.25 |
| ELCPLGHSRTPKCLKIPLQC | < -0.25 |
| AWHSLRICFIGQ | < -0.25 |
| GVSWDVQHSCE | < -0.25 |
| RWAL | < -0.25 |
| EDCNPLGHRR | < -0.25 |
| GSEGQEFLGGHRALGLSARG | < -0.25 |
